Measured values taken from PMC4675091.
Results are given in words; binding and its absence hold for the method and conditions named. Binding seen in cells or lysates may run through a third protein. For part of these data: Binding can be weak; no strength is given.

Chains of the proteins cited; added tags and fusions are not shown. Lines headed by an entry give the natural chain unless they say otherwise; changes in a name come on top. A line that says so, or that is headed by a name, gives the form on record, which may keep a tag or linker. Residues count along the entry.
UniProt P35612: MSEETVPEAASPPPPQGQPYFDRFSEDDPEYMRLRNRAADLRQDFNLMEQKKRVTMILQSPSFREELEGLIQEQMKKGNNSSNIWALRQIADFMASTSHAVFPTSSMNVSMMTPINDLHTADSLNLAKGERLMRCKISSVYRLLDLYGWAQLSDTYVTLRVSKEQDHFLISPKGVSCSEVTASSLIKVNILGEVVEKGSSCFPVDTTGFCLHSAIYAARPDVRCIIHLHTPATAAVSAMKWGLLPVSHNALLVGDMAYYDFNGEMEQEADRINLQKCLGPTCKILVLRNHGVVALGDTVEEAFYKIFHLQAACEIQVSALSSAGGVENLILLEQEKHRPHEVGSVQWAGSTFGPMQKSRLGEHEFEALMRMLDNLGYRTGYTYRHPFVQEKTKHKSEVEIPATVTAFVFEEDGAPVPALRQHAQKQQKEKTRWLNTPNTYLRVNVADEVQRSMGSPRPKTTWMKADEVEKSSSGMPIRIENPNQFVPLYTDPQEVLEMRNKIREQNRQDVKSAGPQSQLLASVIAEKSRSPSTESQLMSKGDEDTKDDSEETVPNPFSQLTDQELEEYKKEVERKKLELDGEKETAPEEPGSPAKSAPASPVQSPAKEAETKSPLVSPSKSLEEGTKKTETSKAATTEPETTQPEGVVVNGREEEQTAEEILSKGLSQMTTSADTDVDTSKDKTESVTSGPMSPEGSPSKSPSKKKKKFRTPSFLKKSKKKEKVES
myc-tagged C-terminal fragment of β-adducin (aa 502–726): residues 502-726 of P35612
myc-tagged β-adducin 502–613-fragment lacking the MARCKS domain: residues 502-613 of P35612
UniProt Q60829: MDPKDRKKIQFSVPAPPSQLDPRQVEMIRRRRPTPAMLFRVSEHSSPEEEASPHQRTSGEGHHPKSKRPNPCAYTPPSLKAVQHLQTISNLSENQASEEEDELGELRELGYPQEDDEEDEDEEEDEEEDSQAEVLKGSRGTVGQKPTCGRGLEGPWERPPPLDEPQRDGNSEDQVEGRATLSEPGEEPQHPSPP
UniProt Q6J4I0: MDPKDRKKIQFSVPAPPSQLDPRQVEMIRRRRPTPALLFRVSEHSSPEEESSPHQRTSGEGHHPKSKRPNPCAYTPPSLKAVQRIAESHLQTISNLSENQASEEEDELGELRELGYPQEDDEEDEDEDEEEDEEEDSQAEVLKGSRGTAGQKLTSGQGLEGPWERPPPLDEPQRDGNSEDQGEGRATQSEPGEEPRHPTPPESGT

Columns and labels:
[1] = molecular target: myc-tagged full-length β-adducin (human) (UniProt P35612); test: co-IP; sequential: myc-β-adducin constructs from COS-7 lysate (RIPA) bound to anti-myc agarose, then lysate of COS-7 cells transfected with DARPP-32-GFP overnight at 4 °C; washed in TBS, 1% Tween 20 with additional 50 mM NaCl; immunoblot for DARPP-32
[2] = molecular target: β-adducin–mCherry (human) (UniProt P35612); test: FRET or BRET; acceptor photobleaching FRET between GFP and mCherry fusions in fixed, co-transfected mouse striatal neurons in culture
[3] = molecular target: myc-tagged C-terminal fragment of β-adducin (aa 502–726) (human) (UniProt P35612); test: co-IP; sequential: myc-β-adducin constructs from COS-7 lysate (RIPA) bound to anti-myc agarose, then lysate of COS-7 cells transfected with DARPP-32-GFP overnight at 4 °C; washed in TBS, 1% Tween 20 with additional 50 mM NaCl; immunoblot for DARPP-32
[4] = molecular target: myc-tagged β-adducin 502–613-fragment lacking the MARCKS domain (human) (UniProt P35612); test: as above

Row | Substance | binding [1] | binding [2] | binding [3] | binding [4]
1 | S97D-DARPP-32-GFP (from UniProt Q60829) | binds | binds | – | –
2 | WT DARPP-32-GFP (from UniProt Q6J4I0) | binds | binds | binds | no binding
